Here are results for 35 sequences from article PMC7862700.

The entries are a selection whose mix differs from that of the whole data set. At the low end of the ranking, values are background and their order means little.

This experiment concerns the target SPI1 (UniProt P17947). Kind of experiment: DAPPL (digital affinity profiling via proximity ligation, sequencing). To be noted: 10 mM Tris-HCl pH 7.5, 50 mM NaCl, 1 mM DTT, 4% glycerol, room temperature, 30 min; GST-TFs on glutathione beads, 16-mer random dsDNA library, 0.1% …; high values mean tight binding; double strand, one strand shown; scale: fold enrichment (6-mer frequency, TF over GST control).
In turn, AAATGA showed a binding signal of 1.45. CACTCG: the binding signal turned out to be 1.01. In turn, CCGTAA came in with a binding signal of 1.13. The sequence TTAGTT yielded a binding signal of 1.27.

Sequence ATCTGA returned a binding signal of 0.969. Then TTGCGC, with 1.06; and ACACGA, with 1.07; and TCGCGC, with 0.993. The sequence GATTTC yielded a binding signal of 1.67. On to AGCCCC, for which the binding signal was 1.02. CTGCCA: the binding signal worked out at 1.24. As to TCCGAC, the binding signal is 1.37.

Regarding GAACCA, the binding signal came to 0.982. The sequence TACTCT yielded a binding signal of 1.44. Consider CCGCCT, for which the binding signal worked out at 1.5. The sequence TCTTTG yielded a binding signal of 1.21. Take CCGATA: the binding signal is 1.09. For CCACGC, the binding signal came to 1.07. Sequence TGTTAT showed a binding signal of 1.38.

As to CTTCTA, the binding signal is 1.41.

As to AAATAT, the binding signal came to 1.32. In turn, CCCAAT registered a binding signal of 1.28.

Take ATACCA: the binding signal came out at 0.953.

Consider TCTGCA, for which the binding signal stood at 1.33.

Turning to TACTGA, the binding signal is 1.02. As for TTTGCG, the binding signal worked out at 1.32.

Sequence TATTAT had a binding signal of 1.2. Then TAACCC, with 1.18; and TTAACC, with 1.23. Consider AATTCC, for which the binding signal turned out to be 1.89.

The sequence TCGTTC gave a binding signal of 1.17.

TCTTCT came in with a binding signal of 1.22. Consider TAGTTT, for which the binding signal turned out to be 1.12. In the case of TATGTA, the binding signal stood at 1.3. As to CTGCGA, the binding signal was 1.33.
